According to the supplement of paper PMC10849652:
The list shows a part of the results.

By UniProt entry, the sequences of proteins in these tests, tags left out. Where a name states a change or a piece, a line headed by the entry shows the natural chain unless it says otherwise.
UniProt Q96QC0: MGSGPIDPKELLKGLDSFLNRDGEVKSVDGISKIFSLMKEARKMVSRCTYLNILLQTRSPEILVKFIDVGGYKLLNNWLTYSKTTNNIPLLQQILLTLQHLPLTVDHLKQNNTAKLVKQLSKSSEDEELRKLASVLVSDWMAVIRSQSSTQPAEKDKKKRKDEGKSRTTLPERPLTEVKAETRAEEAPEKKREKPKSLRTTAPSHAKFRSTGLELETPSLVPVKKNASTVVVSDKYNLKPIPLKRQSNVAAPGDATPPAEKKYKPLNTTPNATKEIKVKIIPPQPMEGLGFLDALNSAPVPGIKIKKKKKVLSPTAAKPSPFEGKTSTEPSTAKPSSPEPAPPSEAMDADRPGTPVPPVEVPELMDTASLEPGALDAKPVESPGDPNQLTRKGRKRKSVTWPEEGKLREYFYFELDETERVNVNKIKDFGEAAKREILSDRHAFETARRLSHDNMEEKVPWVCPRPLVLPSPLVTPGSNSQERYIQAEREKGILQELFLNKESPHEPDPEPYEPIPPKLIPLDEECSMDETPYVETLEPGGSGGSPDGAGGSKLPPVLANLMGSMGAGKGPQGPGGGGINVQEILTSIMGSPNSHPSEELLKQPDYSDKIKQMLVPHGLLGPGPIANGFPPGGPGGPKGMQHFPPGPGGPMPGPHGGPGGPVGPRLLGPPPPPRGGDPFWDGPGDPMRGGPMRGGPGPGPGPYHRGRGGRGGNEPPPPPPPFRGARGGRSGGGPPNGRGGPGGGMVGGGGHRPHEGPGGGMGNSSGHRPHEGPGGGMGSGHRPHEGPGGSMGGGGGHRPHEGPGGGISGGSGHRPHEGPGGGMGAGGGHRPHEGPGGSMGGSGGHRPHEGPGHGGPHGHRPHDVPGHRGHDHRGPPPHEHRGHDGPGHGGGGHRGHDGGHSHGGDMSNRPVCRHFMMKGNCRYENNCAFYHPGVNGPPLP
UniProt Q99873, whole entry, looked up: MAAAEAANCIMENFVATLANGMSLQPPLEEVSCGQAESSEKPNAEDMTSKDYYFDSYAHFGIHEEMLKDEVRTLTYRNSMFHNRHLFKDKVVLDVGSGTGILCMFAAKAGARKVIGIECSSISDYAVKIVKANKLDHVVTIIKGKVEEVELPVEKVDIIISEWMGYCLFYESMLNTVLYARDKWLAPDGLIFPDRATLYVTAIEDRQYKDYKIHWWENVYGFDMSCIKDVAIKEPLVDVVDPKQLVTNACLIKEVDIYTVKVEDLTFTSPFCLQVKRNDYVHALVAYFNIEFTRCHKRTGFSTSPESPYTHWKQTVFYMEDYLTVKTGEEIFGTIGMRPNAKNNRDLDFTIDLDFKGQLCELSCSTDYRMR
UniProt P48634: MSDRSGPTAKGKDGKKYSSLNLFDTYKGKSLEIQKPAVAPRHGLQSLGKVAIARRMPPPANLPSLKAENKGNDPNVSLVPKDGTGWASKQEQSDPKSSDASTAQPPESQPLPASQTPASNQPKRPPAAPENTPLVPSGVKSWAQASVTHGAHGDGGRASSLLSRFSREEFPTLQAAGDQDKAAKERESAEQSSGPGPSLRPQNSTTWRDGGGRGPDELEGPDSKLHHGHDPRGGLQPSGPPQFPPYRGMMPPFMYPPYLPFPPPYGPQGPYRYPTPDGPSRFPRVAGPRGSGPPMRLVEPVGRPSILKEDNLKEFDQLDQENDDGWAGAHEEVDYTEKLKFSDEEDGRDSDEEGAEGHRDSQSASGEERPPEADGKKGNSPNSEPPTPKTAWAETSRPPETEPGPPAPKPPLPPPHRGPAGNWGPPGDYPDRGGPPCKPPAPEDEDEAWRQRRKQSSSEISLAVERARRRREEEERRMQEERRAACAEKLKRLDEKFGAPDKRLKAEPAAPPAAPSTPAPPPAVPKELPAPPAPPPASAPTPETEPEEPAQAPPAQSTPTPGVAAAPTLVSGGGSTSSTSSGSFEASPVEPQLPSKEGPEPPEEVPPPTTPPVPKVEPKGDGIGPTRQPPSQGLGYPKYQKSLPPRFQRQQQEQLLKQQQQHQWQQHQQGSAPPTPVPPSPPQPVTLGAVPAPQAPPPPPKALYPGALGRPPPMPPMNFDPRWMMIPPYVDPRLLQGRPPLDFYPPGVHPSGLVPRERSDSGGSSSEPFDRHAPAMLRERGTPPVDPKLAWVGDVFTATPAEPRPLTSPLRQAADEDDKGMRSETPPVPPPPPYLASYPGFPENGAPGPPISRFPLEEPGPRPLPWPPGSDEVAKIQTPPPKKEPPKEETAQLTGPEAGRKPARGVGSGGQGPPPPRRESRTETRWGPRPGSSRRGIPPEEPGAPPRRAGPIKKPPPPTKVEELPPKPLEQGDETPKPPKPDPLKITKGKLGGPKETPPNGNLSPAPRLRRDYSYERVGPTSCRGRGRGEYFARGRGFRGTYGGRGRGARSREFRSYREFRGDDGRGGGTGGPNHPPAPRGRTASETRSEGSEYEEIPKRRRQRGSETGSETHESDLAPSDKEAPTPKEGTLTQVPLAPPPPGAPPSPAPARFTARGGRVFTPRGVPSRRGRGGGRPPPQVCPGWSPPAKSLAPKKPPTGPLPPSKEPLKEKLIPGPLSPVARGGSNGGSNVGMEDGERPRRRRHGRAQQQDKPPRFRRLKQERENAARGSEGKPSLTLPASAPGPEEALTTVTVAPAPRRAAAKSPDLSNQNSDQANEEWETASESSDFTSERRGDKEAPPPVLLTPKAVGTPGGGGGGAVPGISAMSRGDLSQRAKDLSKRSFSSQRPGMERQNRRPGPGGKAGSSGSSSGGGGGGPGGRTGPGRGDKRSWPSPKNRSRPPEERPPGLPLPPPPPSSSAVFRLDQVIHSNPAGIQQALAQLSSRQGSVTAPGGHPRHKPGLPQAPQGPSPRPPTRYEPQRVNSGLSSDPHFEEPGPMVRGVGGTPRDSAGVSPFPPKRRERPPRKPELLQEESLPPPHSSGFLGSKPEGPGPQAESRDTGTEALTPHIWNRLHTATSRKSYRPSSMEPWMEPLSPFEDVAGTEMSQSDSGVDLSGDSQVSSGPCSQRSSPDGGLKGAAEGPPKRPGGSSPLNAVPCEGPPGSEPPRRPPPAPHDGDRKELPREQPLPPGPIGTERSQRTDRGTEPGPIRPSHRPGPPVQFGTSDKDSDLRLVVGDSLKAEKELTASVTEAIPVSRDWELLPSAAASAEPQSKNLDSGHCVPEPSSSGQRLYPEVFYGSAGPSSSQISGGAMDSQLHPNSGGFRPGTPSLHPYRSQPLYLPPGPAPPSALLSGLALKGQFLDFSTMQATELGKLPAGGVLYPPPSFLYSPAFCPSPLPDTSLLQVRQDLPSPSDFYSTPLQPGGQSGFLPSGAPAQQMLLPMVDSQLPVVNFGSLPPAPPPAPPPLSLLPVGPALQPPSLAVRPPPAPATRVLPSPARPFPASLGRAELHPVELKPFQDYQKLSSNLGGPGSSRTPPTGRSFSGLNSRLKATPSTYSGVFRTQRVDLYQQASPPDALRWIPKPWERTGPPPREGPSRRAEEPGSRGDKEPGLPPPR
UniProt Q92733: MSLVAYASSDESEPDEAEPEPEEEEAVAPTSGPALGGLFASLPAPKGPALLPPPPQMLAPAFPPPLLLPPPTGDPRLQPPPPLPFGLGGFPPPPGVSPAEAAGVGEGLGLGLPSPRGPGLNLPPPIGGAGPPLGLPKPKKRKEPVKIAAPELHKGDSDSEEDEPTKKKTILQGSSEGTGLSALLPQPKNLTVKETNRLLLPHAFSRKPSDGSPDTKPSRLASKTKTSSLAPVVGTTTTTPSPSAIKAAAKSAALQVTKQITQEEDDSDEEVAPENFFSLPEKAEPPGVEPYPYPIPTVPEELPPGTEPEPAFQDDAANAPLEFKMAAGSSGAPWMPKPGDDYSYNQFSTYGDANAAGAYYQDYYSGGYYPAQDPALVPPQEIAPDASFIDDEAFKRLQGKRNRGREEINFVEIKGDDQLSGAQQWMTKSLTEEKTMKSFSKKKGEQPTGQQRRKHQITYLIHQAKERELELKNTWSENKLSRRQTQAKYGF
UniProt Q8WWY3: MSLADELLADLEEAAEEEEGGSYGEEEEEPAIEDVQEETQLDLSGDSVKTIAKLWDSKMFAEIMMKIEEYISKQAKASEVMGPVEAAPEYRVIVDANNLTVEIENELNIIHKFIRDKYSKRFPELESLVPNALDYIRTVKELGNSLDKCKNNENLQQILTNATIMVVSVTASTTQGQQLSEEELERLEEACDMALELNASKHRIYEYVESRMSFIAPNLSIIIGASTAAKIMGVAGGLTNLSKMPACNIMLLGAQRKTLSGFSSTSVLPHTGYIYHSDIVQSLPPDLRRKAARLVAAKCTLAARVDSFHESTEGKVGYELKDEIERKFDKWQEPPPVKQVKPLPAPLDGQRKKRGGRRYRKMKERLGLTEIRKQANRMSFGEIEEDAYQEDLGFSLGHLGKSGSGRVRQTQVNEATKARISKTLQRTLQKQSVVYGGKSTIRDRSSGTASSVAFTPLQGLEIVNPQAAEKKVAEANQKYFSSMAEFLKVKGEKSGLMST
UniProt Q05655: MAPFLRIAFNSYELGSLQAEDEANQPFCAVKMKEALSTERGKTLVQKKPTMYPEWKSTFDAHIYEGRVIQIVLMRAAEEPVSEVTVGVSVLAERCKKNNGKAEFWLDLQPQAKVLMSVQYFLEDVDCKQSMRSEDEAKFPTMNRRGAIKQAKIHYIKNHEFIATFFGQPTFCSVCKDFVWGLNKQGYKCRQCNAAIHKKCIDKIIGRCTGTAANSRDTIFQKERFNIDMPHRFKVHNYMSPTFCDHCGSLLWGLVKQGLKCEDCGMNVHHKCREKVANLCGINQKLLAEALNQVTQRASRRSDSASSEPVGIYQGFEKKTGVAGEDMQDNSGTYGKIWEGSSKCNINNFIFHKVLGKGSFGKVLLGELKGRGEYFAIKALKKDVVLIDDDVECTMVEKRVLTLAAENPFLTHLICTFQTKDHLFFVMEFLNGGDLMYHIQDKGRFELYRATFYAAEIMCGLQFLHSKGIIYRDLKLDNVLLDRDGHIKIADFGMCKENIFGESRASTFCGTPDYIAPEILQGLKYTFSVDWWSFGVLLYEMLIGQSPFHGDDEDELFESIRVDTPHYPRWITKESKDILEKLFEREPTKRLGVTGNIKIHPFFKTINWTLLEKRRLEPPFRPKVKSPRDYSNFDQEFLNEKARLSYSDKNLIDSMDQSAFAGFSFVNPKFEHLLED
UniProt P49642: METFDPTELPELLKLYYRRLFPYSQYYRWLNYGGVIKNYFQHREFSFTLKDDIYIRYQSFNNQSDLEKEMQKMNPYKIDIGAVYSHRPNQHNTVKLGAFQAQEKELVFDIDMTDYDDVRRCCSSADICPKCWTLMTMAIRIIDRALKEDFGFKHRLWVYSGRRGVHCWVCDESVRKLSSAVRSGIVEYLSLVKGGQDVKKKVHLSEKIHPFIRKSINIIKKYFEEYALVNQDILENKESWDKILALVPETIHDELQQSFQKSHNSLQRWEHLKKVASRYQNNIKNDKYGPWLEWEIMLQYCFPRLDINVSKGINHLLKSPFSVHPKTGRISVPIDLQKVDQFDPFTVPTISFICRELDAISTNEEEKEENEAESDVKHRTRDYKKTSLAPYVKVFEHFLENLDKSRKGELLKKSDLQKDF
UniProt Q9Y478: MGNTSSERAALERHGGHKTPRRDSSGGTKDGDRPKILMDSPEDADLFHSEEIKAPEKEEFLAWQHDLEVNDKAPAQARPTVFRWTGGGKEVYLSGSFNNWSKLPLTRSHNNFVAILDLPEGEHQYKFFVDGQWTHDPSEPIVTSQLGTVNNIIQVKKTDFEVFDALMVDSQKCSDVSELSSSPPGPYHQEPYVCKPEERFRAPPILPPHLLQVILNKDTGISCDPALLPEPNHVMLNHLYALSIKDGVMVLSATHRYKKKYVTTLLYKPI

Key:
Assay in all cases: log2 fold change, soluble protein after heating vs DMSO (PISA); higher = thermal stabilisation; K562 cells, 10 uM, 30 min; active = over 0.2 and 3.5 SD of the protein, either way, in both replicates (recomputed)
[1] = compound: C1=CC=C(C=C1)[C@H](COC2=CC3=C(C=C2)NC(=O)N3)NC(=O)C4=CC=CN(C4=O)CC5=CC(=C(C=C5)F)F
In short: (§1)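 Thermal stability values are relative to control samples and come from duplicates. They are expressed as log2 fold changes. For measurement, K562 cells (2×10^6 cells/mL) received 10 μM compound for 30 min, and aliquots were heated for 3 min over 48°C-58°C, pooled, and extracted at 4°C in PBS with 0.5% NP-40. Soluble protein, the supernatant after 21,000xg for 90 min, was quantified by TMTpro 16plex LC-MS/MS with equalised channel sums.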

[2] = compound: CC1=C(SC2=C1C(=N[C@H](C3=NN=C(N32)C)CC(=O)N)C4=CC=C(C=C4)Cl)C
In short: as §1

[3] = compound: CC1=C2C(=CC=C1)N=C(N(C2=O)C3=CC=CC=C3C)CN4C=NC5=C(N=CN=C54)N
In short: as §1

[4] = compound: Cc1sc2c(c1C)C(c1ccc(Cl)cc1)=N[C@@H](CC(=O)OC(C)(C)C)c1nnc(C)n1-2
In short: as §1

[5] = compound: c1ccc([C@@H]2C[C@H]2NC2CCNCC2)cc1
In short: as §1

Measured: log2 fold change

PPP1R10 (UniProt Q96QC0)
inactive: [1] 0.087 | [2] -0.189 | [3] -0.177 | [4] 0.086 | [5] 0.026

PPP1R8 (UniProt Q12972)
inactive: [1] 0.006 | [2] 0.073 | [3] 0 | [4] -0.025 | [5] 0.023

PPP4R3A (UniProt Q6IN85)
inactive: [1] 0.01 | [2] 0.039 | [3] 0.059 | [4] 0.02 | [5] 0.028

PRMT1 (UniProt Q99873)
inactive: [1] -0.034 | [2] 0.087 | [3] -0.006 | [4] -0.013 | [5] -0.022

PRPF38A (UniProt Q8NAV1)
inactive: [1] 0.014 | [2] -0.011 | [3] 0.024 | [4] 0.007 | [5] 0.015

PPP1R12A (UniProt O14974)
inactive: [1] 0.005 | [2] 0.057 | [3] 0.047 | [4] 0.035 | [5] -0.008

PRDX6 (UniProt P30041)
inactive: [1] -0.011 | [2] 0.076 | [3] 0.063 | [4] 0.006 | [5] -0.004

PRRC2A (UniProt P48634)
inactive: [1] 0.067 | [2] -0.084 | [3] -0.057 | [4] 0.072 | [5] 0.023

PPP4R3B (UniProt Q5MIZ7)
inactive: [1] -0.014 | [2] 0.069 | [3] 0.134 | [4] 0.003 | [5] -0.005

PRKCA (UniProt P17252)
inactive: [1] -0.035 | [2] 0.124 | [3] 0.14 | [4] 0.002 | [5] -0.038

PRCC (UniProt Q92733)
inactive: [1] 0.051 | [2] 0.006 | [3] 0.016 | [4] 0.024 | [5] 0.067

Two successive entries out of the list so far, for reference:
PRRC2A (UniProt P48634)
inactive: [1] 0.067 | [2] -0.084 | [3] -0.057 | [4] 0.072 | [5] 0.023

PPP4R3B (UniProt Q5MIZ7)
inactive: [1] -0.014 | [2] 0.069 | [3] 0.134 | [4] 0.003 | [5] -0.005

Next part

PPP2CA (UniProt P67775)
inactive: [1] -0.056 | [2] 0.059 | [3] 0.007 | [4] -0.028 | [5] 0.016

PPP4R2 (UniProt Q9NY27)
inactive: [1] 0.001 | [2] 0.064 | [3] -0.015 | [4] 0.029 | [5] 0.015

PRPF31 (UniProt Q8WWY3)
inactive: [1] -0.07 | [2] 0.028 | [3] 0.174 | [4] -0.087 | [5] 0.005

PPP1R14A (UniProt Q96A00)
inactive: [1] 0.011 | [2] 0.009 | [3] -0.002 | [4] 0.061 | [5] -0.013

PRPH isoform 2 (UniProt P41219)
inactive: [1] 0.197 | [2] -0.094 | [3] -0.085 | [4] 0.095 | [5] 0.037

PRKAR2A (UniProt P13861)
inactive: [1] 0.044 | [2] 0.046 | [3] 0.054 | [4] 0.018 | [5] -0.003

PRKACA (UniProt P17612)
inactive: [1] -0.01 | [2] 0.005 | [3] -0.053 | [4] -0.009 | [5] 0.035

PRKCD (UniProt Q05655)
inactive: [1] -0.05 | [2] 0.082 | [3] 0.071 | [4] 0.004 | [5] -0.021

PPM1B (UniProt O75688)
inactive: [1] -0.05 | [2] 0.02 | [3] 0.044 | [4] 0.015 | [5] -0.05

PRKCSH (UniProt P14314)
inactive: [1] -0.022 | [2] 0.013 | [3] 0.002 | [4] -0.029 | [5] -0.024

PRIM1 (UniProt P49642)
inactive: [1] -0.149 | [2] -0.033 | [3] 0.053 | [4] 0.033 | [5] 0.01

PRKAB1 (UniProt Q9Y478)
inactive: [1] 0.011 | [2] 0.037 | [3] -0.024 | [4] -0.093 | [5] -0.037

PPM1H (UniProt Q9ULR3)
inactive: [1] -0.009 | [2] 0.068 | [3] 0.026 | [4] -0.004 | [5] 0.03
